According to paper doi:10.1101/2022.01.26.477890:

Tests used:
[1] = biological target: FLAG-STREP-tagged P. putida histidine kinase (PP_3835) (Pseudomonas putida KT2440) (UniProt Q88G90); test: pull-down
[2] = biological target: P. putida KT2440 histidine kinase (two-hybrid fusion) (Pseudomonas putida KT2440) (UniProt Q88G90); test: two-hybrid

Q: Which binding [1] does the source give for “His10Smt3-KaiC P. putida KT2440 (from UniProt Q88G91)” here?
A: Its binding is “binds”.

Q: For “P. putida KT2440 KaiC homolog (two-hybrid fusion) (from UniProt Q88G91)”, which binding [2] is on record?
A: The binding was “binds weakly”.

Results are given in words; binding and its absence hold for the method and conditions named. Binding calls can cover weak binding; strength is not graded here. For some assays here: In cells and extracts the contact can be indirect.
